The supplement of paper PMC10849652
The other results are listed elsewhere or left out.

Sequences of proteins named here, by UniProt entry; tags and fusion partners are left off. A change or cut given only in a name is not applied to a line headed by its entry.
UniProt Q9NQE9: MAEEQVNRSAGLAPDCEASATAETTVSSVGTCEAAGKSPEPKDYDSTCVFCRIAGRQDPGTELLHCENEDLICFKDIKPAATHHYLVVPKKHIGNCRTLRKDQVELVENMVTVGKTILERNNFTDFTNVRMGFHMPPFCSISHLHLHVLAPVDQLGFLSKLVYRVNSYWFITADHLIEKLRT
UniProt Q9P2P5: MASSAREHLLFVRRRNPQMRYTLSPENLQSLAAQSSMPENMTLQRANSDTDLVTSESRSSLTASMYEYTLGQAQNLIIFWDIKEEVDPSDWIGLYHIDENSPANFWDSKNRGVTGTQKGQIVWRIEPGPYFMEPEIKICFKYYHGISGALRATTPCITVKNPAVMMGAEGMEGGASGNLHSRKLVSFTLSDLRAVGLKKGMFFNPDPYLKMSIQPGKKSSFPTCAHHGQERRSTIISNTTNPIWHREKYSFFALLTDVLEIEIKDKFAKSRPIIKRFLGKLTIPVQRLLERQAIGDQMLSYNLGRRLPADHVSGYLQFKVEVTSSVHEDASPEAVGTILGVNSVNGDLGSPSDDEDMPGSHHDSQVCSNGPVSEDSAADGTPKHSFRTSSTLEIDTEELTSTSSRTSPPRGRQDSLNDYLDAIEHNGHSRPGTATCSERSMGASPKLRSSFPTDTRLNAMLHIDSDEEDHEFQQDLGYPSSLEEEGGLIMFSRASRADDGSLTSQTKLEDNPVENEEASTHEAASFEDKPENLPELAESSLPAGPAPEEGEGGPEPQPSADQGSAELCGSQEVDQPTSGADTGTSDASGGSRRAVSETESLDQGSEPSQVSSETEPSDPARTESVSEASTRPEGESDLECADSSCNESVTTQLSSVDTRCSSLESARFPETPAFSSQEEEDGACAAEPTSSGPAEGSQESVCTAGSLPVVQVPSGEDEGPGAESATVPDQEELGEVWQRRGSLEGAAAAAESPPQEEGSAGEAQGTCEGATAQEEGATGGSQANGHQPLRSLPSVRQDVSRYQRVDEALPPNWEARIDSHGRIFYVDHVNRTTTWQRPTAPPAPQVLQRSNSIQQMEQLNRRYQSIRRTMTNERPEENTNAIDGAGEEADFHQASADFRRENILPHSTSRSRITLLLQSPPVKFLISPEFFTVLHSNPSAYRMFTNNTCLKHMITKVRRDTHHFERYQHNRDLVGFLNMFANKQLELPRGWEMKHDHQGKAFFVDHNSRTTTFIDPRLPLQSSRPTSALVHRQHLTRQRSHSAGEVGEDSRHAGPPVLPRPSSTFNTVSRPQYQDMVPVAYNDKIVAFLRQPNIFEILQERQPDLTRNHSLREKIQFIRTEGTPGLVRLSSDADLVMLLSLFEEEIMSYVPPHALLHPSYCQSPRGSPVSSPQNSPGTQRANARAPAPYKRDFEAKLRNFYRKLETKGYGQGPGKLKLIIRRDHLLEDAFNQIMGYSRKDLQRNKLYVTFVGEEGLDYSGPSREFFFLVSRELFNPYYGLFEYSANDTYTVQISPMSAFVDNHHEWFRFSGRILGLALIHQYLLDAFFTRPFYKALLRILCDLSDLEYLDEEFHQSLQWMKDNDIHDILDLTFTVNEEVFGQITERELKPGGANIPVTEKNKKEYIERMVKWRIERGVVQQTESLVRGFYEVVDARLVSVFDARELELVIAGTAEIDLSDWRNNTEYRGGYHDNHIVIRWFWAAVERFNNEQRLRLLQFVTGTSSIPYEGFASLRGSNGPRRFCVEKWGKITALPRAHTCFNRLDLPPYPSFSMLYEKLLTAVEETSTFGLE
UniProt P50135: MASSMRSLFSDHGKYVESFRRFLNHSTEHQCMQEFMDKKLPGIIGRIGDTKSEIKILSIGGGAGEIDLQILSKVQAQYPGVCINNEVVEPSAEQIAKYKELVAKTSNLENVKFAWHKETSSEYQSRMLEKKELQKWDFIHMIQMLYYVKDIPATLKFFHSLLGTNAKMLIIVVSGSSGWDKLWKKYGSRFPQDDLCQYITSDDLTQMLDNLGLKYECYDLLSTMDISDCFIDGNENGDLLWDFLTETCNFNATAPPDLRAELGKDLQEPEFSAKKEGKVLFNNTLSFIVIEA
UniProt O75506: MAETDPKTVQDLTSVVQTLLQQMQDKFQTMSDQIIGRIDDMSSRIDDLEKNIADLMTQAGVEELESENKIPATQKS
UniProt Q9NWY4: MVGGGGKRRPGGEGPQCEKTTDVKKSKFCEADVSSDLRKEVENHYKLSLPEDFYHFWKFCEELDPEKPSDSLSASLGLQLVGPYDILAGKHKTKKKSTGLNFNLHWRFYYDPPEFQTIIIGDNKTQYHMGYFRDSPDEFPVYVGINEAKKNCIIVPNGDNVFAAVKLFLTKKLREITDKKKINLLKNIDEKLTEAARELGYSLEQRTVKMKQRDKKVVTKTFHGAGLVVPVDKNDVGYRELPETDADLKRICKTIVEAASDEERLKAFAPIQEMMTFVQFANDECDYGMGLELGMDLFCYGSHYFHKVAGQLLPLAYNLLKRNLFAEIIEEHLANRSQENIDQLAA
UniProt P22626: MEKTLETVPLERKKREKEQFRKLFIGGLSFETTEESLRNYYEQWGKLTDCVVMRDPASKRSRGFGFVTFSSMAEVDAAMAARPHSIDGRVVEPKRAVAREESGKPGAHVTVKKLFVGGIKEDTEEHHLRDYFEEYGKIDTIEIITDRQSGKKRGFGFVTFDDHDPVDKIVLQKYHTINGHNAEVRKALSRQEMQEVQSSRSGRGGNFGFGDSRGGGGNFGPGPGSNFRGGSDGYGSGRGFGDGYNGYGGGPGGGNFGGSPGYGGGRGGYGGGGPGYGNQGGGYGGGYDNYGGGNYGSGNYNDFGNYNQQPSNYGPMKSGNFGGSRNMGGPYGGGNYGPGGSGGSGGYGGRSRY
UniProt Q92902: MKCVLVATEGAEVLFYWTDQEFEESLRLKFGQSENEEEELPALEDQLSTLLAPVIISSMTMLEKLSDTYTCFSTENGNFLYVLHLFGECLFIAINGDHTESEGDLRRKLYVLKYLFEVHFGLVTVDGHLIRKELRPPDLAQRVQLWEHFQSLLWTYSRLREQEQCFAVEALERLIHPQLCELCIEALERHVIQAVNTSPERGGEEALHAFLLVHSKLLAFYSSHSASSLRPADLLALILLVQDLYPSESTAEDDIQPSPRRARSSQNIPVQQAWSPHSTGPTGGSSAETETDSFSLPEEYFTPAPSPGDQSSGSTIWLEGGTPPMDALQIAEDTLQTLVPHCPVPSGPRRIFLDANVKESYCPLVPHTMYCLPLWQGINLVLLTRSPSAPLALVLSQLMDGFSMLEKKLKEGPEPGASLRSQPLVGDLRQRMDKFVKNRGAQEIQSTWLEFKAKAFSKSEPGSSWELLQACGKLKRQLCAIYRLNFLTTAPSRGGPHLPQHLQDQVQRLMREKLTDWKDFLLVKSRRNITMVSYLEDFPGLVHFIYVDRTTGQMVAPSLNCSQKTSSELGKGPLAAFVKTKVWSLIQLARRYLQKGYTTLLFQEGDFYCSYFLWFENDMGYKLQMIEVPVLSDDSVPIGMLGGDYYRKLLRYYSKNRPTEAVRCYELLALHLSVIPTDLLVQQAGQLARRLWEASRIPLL
UniProt P17483: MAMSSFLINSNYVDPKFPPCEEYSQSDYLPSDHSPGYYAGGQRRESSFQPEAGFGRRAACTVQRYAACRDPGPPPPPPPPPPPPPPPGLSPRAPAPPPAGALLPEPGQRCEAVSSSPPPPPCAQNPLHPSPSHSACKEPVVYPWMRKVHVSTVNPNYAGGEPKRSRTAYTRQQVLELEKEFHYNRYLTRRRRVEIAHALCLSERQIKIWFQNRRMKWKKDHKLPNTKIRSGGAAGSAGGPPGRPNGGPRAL
UniProt P19367: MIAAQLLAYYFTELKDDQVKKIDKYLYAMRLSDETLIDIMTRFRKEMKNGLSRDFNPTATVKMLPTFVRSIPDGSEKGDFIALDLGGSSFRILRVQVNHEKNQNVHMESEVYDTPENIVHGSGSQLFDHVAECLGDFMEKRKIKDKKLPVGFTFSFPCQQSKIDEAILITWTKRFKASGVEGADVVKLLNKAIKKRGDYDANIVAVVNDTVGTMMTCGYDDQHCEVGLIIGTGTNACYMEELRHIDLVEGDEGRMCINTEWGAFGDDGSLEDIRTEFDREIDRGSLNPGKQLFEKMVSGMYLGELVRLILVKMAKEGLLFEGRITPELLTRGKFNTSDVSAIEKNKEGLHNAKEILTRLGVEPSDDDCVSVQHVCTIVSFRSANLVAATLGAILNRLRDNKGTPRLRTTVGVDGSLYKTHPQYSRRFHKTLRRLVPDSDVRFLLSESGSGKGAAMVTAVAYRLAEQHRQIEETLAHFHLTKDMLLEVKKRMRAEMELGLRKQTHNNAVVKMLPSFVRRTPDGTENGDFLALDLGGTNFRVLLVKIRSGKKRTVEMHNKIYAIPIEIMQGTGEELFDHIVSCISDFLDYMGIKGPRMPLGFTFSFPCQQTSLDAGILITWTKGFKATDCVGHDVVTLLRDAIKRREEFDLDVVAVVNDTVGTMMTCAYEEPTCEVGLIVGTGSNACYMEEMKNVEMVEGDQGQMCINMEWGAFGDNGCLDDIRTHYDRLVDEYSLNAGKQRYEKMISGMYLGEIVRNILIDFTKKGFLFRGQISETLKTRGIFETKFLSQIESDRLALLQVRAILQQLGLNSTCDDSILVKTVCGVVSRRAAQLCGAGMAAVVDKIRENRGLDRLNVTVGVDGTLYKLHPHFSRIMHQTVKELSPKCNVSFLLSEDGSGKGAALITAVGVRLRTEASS
UniProt Q6AI08: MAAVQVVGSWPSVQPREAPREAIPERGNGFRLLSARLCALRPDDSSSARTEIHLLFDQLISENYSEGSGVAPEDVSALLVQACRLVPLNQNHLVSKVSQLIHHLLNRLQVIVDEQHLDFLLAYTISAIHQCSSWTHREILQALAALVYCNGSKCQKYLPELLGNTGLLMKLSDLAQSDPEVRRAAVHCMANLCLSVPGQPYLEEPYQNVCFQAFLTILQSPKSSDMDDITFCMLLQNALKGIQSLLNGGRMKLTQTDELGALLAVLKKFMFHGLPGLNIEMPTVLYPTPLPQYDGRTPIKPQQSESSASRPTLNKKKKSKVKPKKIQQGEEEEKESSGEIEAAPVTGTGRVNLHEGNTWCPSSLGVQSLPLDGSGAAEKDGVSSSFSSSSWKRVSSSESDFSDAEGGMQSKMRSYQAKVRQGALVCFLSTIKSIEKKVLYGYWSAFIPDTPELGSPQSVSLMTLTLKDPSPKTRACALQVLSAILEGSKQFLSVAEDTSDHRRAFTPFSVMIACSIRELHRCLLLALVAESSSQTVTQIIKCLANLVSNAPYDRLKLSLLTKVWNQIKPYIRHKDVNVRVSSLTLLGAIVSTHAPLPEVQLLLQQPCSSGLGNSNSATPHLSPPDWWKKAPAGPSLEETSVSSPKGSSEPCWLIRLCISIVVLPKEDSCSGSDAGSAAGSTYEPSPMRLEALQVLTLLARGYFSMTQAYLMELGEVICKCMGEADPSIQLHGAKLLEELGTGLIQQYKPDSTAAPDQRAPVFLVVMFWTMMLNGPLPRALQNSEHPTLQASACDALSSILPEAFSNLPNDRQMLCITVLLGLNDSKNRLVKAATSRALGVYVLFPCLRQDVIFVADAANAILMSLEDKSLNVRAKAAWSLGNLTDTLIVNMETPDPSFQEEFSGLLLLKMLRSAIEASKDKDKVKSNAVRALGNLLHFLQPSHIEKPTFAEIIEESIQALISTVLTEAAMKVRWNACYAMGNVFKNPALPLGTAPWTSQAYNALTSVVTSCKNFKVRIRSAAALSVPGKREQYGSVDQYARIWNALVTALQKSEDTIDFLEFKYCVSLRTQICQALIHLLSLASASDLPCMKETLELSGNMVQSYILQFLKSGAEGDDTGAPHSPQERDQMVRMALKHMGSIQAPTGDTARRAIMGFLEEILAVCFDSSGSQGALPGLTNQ
UniProt Q03933: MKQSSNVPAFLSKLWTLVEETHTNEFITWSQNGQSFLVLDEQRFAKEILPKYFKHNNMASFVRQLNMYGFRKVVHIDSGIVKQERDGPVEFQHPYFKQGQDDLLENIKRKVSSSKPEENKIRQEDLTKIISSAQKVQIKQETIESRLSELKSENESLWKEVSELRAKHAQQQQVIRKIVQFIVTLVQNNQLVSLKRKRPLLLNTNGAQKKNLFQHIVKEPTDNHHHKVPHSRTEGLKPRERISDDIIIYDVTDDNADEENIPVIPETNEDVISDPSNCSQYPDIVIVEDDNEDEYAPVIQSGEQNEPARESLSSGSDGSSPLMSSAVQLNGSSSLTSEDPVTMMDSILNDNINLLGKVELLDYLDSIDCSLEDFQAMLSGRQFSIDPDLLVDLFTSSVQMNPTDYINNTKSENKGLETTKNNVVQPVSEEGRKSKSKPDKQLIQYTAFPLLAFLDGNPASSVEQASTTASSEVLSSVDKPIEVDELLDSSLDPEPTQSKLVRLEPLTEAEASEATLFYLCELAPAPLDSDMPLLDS

Each target was assayed with COC(=O)[C@H](CCSC)NC(=O)C1=C(C=C(C=C1)NC[C@H](CS)N)C2=CC=CC=C2 (assay: log2 fold change, soluble protein after heating vs DMSO (PISA); higher = thermal stabilisation; K562 lysate, 10 uM; active = over 0.2 and 3.5 SD of the protein, either way, in both replicates (recomputed)).
How it was run: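 Dounce homogenisation of K562 pellets in PBS pH 7.4 with 1 mM MgCl2 produced a crude extract, used at 1 mg/mL protein. Exposure to 10 μM compound lasted 30 min, and aliquots were then heated for 3 min across 48°C-58°C, pooled and brought to 0.5% NP-40 at 4°C. The supernatant after 21,000xg for 90 min was quantified by TMTpro 16plex LC-MS/MS with channel sums equalised. Duplicate values are given as log-two fold change in thermal stability relative to solvent controls.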

log2 fold change, inactive:
HOOK3 (UniProt Q86VS8) -0.03
HINT3 (UniProt Q9NQE9) -0.011
HMGXB4 (UniProt Q9UGU5) 0.018
HECW2 (UniProt Q9P2P5) 0.153
HNMT (UniProt P50135) -0.072
HSBP1 (UniProt O75506) -0.141
HNRNPR isoform 2 (UniProt O43390) 0.03
HSPA1A (UniProt P0DMV8) -0.009
HSD17B7 (UniProt P56937) 0.068
HP1BP3 (UniProt Q5SSJ5) 0.083
HPF1 (UniProt Q9NWY4) 0.109
HECTD4 (UniProt J3KPF0) 0.146
HNRNPA2B1 (UniProt P22626) -0.027
HERPUD1 (UniProt Q15011) 0.01
HOXB9 (UniProt P17482) 0.012
HPS1 (UniProt Q92902) 0.02
HOXB4 (UniProt P17483) -0.1
HIRA (UniProt P54198) -0.084
HEXD isoform 2 (UniProt Q8WVB3) 0.231
HK1 isoform 2 (UniProt P19367) 0.004
HEATR6 (UniProt Q6AI08) 0.101
HSF2 (UniProt Q03933) 0.064
HNRNPM (UniProt M0QZM1) -0.025

6 successive entries from above, quoted:
log2 fold change, inactive:
HOXB9 (UniProt P17482) 0.012
HPS1 (UniProt Q92902) 0.02
HOXB4 (UniProt P17483) -0.1
HIRA (UniProt P54198) -0.084
HEXD isoform 2 (UniProt Q8WVB3) 0.231
HK1 isoform 2 (UniProt P19367) 0.004
